We go through 23 targets from the supplement of paper PMC10849652.

Chains of the proteins cited; added tags and fusions are not shown. Lines headed by an entry give the natural chain unless they say otherwise; changes in a name come on top.
UniProt O43299: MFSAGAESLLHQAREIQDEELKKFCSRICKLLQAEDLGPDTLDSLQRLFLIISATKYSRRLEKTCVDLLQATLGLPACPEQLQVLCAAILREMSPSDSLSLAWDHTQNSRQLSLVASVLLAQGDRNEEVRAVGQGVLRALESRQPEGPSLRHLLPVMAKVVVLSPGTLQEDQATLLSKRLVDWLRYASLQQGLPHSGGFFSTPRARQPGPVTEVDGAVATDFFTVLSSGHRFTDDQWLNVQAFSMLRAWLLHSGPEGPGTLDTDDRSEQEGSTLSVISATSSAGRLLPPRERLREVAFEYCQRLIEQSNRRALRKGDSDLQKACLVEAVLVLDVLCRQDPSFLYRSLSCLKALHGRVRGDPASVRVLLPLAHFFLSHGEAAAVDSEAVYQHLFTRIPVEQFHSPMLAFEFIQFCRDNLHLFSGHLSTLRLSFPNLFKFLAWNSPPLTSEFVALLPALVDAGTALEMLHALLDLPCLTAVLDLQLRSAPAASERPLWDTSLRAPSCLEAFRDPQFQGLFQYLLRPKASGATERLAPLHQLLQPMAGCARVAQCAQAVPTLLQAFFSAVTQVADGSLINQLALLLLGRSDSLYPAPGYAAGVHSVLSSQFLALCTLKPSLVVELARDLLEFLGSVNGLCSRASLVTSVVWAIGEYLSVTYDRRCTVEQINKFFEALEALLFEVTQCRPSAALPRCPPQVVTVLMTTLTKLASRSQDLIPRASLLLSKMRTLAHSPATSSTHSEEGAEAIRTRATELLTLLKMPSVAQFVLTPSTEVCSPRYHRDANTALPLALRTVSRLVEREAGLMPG
UniProt O15013: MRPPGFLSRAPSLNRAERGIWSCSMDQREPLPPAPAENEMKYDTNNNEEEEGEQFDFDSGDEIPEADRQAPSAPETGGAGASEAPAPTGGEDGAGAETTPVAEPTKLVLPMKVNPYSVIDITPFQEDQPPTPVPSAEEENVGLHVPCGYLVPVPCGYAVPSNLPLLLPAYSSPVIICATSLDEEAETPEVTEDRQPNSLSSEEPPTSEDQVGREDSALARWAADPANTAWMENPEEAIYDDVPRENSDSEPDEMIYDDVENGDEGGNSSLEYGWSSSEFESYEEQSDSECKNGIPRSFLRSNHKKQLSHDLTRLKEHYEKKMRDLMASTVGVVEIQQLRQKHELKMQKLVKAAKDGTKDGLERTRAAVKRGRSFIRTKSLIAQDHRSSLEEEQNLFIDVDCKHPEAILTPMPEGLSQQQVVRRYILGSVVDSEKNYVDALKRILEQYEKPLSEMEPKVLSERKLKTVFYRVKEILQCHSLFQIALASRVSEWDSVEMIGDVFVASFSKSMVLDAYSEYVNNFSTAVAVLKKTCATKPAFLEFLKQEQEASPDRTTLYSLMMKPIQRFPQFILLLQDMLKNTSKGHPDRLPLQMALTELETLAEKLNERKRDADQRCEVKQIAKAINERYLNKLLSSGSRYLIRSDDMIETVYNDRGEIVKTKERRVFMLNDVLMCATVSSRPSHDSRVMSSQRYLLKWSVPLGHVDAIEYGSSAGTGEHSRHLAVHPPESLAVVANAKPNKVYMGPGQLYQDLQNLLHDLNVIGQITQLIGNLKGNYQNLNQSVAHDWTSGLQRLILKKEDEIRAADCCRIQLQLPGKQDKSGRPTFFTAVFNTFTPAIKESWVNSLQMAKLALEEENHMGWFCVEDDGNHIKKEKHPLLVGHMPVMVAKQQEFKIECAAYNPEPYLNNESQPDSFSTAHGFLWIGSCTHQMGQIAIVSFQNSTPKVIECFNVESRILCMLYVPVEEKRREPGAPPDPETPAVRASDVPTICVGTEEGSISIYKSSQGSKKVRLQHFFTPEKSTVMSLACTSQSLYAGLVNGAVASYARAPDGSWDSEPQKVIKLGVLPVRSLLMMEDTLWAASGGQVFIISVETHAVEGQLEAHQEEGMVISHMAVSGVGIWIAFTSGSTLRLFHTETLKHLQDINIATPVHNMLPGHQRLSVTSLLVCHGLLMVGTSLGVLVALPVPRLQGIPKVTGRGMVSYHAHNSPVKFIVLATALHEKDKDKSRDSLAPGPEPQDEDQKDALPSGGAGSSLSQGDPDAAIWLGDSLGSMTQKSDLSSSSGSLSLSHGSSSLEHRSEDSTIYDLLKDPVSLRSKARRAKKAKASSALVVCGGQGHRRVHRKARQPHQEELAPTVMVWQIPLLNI
UniProt Q9H2C2: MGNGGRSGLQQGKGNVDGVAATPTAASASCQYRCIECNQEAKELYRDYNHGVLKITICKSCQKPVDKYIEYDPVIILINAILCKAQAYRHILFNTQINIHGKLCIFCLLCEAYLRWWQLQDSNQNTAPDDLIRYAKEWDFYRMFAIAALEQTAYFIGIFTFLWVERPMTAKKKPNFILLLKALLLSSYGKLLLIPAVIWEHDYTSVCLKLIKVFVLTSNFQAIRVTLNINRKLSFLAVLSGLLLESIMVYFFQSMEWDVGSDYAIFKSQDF
UniProt Q96GX9: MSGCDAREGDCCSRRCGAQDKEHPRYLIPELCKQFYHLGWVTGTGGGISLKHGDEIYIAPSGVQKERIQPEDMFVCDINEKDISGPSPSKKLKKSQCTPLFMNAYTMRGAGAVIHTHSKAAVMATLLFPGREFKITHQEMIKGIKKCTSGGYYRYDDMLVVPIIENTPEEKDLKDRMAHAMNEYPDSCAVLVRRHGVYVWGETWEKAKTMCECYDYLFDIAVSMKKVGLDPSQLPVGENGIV
UniProt Q13017, whole entry, looked up: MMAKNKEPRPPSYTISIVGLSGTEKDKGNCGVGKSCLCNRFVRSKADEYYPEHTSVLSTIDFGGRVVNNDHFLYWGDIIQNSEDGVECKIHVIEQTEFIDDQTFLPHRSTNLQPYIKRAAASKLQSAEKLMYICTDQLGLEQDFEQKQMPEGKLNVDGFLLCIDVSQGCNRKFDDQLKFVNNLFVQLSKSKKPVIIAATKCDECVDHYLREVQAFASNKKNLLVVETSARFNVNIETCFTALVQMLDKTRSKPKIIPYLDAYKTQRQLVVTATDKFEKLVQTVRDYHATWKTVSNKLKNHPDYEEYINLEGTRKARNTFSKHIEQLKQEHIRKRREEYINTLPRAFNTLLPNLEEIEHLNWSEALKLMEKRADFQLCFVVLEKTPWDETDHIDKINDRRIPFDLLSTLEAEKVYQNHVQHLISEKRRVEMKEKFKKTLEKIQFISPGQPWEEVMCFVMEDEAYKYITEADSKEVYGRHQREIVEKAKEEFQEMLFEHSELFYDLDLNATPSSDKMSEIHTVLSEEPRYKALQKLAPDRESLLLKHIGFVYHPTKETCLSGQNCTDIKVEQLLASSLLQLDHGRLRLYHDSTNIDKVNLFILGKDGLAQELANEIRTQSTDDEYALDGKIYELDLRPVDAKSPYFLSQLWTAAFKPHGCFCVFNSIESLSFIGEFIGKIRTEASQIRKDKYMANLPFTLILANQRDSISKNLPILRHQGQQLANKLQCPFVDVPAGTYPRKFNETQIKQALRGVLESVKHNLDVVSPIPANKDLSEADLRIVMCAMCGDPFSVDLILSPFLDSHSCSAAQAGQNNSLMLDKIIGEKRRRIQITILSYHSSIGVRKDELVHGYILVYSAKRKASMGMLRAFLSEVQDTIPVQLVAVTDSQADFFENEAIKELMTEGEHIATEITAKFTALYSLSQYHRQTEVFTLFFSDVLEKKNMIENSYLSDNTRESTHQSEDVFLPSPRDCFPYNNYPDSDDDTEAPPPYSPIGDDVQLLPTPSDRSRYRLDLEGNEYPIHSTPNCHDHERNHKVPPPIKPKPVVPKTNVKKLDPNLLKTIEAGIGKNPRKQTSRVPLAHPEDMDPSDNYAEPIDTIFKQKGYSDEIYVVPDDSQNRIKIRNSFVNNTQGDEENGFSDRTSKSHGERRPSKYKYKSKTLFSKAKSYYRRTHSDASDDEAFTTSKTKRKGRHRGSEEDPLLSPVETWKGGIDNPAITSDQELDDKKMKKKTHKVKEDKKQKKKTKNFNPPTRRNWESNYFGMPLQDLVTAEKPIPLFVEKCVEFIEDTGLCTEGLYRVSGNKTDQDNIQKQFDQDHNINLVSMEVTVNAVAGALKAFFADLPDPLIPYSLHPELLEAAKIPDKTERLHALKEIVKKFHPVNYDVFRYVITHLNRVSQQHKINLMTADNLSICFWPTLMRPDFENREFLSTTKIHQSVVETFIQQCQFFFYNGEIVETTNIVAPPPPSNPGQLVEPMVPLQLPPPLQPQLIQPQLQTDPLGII
UniProt Q8NFD5, whole entry, looked up: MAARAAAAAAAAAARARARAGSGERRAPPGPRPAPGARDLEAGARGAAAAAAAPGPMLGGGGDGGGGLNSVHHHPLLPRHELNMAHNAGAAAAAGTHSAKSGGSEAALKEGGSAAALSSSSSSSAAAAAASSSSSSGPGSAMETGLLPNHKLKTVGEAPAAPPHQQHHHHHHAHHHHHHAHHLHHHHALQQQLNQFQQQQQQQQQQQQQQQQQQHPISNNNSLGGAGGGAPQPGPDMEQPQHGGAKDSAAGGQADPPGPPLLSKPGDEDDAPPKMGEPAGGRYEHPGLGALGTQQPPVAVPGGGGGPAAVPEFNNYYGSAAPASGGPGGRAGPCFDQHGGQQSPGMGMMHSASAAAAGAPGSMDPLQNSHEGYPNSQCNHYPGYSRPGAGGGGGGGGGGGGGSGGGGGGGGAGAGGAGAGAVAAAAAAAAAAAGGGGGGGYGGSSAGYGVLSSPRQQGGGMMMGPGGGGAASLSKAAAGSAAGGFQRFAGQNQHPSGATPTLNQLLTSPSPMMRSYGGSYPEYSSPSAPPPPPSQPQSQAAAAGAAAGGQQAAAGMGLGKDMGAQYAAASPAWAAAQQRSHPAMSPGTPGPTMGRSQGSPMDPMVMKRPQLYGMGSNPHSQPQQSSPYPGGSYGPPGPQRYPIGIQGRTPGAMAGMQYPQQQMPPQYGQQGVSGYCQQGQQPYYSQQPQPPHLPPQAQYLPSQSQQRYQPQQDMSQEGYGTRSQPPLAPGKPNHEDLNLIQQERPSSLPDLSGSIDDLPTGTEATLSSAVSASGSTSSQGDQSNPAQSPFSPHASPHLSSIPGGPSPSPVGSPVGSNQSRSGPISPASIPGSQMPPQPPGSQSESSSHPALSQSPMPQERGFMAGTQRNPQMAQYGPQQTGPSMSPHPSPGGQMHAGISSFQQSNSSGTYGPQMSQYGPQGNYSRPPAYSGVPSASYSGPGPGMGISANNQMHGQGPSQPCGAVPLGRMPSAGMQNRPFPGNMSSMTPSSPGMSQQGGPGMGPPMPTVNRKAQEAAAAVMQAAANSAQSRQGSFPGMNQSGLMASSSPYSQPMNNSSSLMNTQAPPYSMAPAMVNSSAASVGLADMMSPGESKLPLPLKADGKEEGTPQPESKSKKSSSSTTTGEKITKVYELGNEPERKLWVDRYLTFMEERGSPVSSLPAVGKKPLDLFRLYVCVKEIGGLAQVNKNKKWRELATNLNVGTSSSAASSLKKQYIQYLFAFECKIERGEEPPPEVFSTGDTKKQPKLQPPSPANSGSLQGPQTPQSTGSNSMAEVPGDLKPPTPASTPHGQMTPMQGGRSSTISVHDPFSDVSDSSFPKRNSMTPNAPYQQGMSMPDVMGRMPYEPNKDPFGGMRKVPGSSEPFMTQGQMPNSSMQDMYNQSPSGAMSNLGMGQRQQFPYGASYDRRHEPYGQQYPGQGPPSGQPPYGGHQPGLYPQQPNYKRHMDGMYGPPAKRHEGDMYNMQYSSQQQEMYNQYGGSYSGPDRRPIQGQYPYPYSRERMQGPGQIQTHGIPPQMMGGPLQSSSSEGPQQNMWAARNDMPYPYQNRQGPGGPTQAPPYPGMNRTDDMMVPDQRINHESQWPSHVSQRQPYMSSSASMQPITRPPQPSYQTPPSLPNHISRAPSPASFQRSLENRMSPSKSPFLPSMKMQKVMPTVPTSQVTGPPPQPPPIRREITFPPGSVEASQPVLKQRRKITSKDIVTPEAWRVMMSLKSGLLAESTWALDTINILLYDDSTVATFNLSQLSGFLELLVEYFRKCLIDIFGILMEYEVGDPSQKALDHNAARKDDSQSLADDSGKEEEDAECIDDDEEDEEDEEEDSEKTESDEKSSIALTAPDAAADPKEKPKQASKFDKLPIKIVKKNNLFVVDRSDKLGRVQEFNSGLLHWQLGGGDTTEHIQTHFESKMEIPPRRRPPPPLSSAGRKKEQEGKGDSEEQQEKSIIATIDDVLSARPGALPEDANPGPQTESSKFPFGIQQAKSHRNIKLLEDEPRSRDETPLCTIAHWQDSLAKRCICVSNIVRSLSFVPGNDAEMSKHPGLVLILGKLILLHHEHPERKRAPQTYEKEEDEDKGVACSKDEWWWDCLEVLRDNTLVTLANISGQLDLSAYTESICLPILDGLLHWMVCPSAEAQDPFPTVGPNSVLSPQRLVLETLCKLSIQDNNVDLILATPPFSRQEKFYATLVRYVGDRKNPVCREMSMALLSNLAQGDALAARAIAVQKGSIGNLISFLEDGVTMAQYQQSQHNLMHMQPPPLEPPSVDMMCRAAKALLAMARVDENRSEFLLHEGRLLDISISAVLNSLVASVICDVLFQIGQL

Some of the results follow.

Compound in the assay: NC(=O)c1cnc(N[C@@H]2CCCC[C@@H]2N)nc1Nc1cccc(-n2nccn2)c1
The assay is described as follows: log2 fold change, soluble protein after heating vs DMSO (PISA); higher = thermal stabilisation; K562 lysate, 10 uM; active = over 0.2 and 3.5 SD of the protein, either way, in both replicates (recomputed). A digest of the protocol: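 To prepare the extract, K562 pellets were dounce-homogenised in PBS pH 7.4 with 1 mM MgCl2, giving crude material at 1 mg/mL protein. This was treated with 10 μM compound for 30 min, then heated in aliquots for 3 min over 48°C-58°C before pooling and addition of NP-40 to 0.5% at 4°C. Centrifugation at 21,000xg for 90 min left soluble protein in the supernatant, which TMTpro 16plex LC-MS/MS quantified with equalised channel sums. Results are log-two fold changes in thermal stability compared with solvent controls, from duplicates.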
Regarding ASAP1 isoform 2 (UniProt Q9ULH1), the log2 fold change is inactive: 0.01.
For the target APOBEC3G (UniProt Q9HC16), the log2 fold change is inactive: 0.03.
Regarding AP5Z1 (UniProt O43299), the log2 fold change was inactive: 0.022.
In the case of ARIH1 (UniProt Q9Y4X5), the log2 fold change was inactive: -0.017.
As to ARHGEF10 (UniProt O15013), the log2 fold change is inactive: -0.1.
The figure for APOOL (UniProt Q6UXV4) is inactive: -0.028; for ARFGEF2 (UniProt Q9Y6D5) it is inactive: 0.017; for ARRDC1 (UniProt Q8N5I2) it is inactive: -0.014.
For the target ARID2 (UniProt Q68CP9), the log2 fold change is inactive: 0.017.
On to ARV1 (UniProt Q9H2C2), for which the log2 fold change was inactive: 0.01.
With APTX (UniProt Q7Z2E3) the figure was inactive: -0.055.
On to APIP (UniProt Q96GX9), for which the log2 fold change is inactive: -0.035.
With ARMCX3 (UniProt Q9UH62) the figure was inactive: 0.008; with ARSA (UniProt P15289), inactive: -0.008.
The figure for ARHGAP18 (UniProt Q8N392) is inactive: 0.016.
The figure for APLP2 (UniProt Q06481) is inactive: 0.035; for AP4S1 (UniProt Q9Y587) it is inactive: -0.019; for ARL6IP1 (UniProt Q15041) it is inactive: 0.013.
ARHGAP5 (UniProt Q13017): the log2 fold change was inactive: 0.025.
The figure for APPL1 (UniProt Q9UKG1) is inactive: -0.014; for ARID1B isoform 3 (UniProt Q8NFD5) it is inactive: 0.011.
The figure for ARHGEF11 isoform 2 (UniProt O15085) is inactive: 0.031.
Turning to ARFGEF1 (UniProt Q9Y6D6), the log2 fold change is inactive: 0.01.
